Patent publication US11406709B2, “Therapeutic and research application of PDCL3” (TRUSTEES OF BOSTON UNIVERSITY, priority 2014, dated 2022)

Tested on: PAE cells
Assay: CHX-chase assay of PDCL3 in hypoxic environment
Type: cell-based, porcine
Settings: hypoxic environment 24 hours

Molecule	PDCL3 expression and stability in response to hypoxia
PDCL3: 239-amino acid human phosducin-like protein 3, SEQ ID NO: 1; expressed from cDNA in cells (protein, listed as Homo sapiens, Myc tag in some forms, expressed from cDNA in cells) MQDPNADTEWNDILRKKGILPPKESLKELEEEAEEEQRILQQSVVKTYEDMTLEELEDHEDEFNEEDERAIEMYRRRRLAEWKATKLKNKFGEVLEISGKDYVQEVTKAGEGLWVILHLYKQGIPLCALINQHLSGLARKFPDVKFIKAISTTCIPNYPDRNLPTIFVYLEGDIKAQFIGPLVFGGMNLTRDELEWKLSESGAIMTDLEENPKKPIEDVLLSSVRRSVLMKRDSDSEGD	upregulated by hypoxia and remains highly stable
acetylation resistant HA-tagged PDCL3: Mutant PDCL3 generated by removing the first methionine and adding HA tag (protein, left off: small tags and cut ends) QDPNADTEWNDILRKKGILPPKESLKELEEEAEEEQRILQQSVVKTYEDMTLEELEDHEDEFNEEDERAIEMYRRRRLAEWKATKLKNKFGEVLEISGKDYVQEVTKAGEGLWVILHLYKQGIPLCALINQHLSGLARKFPDVKFIKAISTTCIPNYPDRNLPTIFVYLEGDIKAQFIGPLVFGGMNLTRDELEWKLSESGAIMTDLEENPKKPIEDVLLSSVRRSVLMKRDSDSEGD	remained stable and hypoxia did significantly increased its expression
